Experimental data reported in PubChem BioAssay AID1347426 (Functional Genomics Laboratory (NCATS/FGL), 2020).
About 1,400 (4.5%) of roughly 31,000 sequences were called active.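 How the source made its calls: active means median seed-adjusted z-score above 1 or below -1; inactive means the rest.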 Some of the results follow.

assay: Novel Modifiers of Survival Motor Neuron (SMN) Protein: Gene Identification via Genome-wide siRNA Screen; details: HEK293T SMN2-luciferase reporter, siRNA knockdown, 72 h; actives lie on both sides;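 further: luminescence tracks full-length SMN protein made from the SMN2 reporter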
How it was run: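 Genome-wide siRNA screen (10418 genes, 3 siRNAs each, 1 pmol per well) by reverse transfection in HEK293T cells stably carrying an SMN2-luciferase reporter; luminescence after 72 hours, normalized to negative-control siRNA, log10-transformed, MAD-scored.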

| Sequence | median seed-adjusted z-score |
| --- | --- |
| CAGCCGUUUUGGGAAGUAUTT against MYO5A | inactive: 0.00798 |
| GCCGGUGCUUUAUCUCAUUTT against GPR87 | inactive: 0.237 |
| CAUCUAGGAUUUUAAGGGATT against ASGR1 | inactive: -0.128 |
| CCGUCUAUAUGGAGUCUUUTT against ROR1 | inactive: -0.0044 |
| CCAAGAAUUUUGACGGUUUTT against DKFZP586H2123 | inactive: -0.38 |
| GGCUCUUUCGAGAAGCGAATT against MMP15 | inactive: -0.0489 |
| GAGUUCAUCCCUAACCGUATT against ZNF568 | inactive: 0.501 |
| GUACUGGAGUGAUGAGUUUTT against PARP12 | inactive: -0.287 |
| GCAGUUGCCCAAUACCAGATT against CMBL | inactive: 0 |
| GCCUUACACUGUGCUAAUATT against PDE10A | inactive: -0.382 |
| AGAGCAUCCUAAACGACCATT against SMUG1 | active: -1.38 |
| GACCCAACUUCGAUACCUATT against TLR8 | inactive: 0 |
| CACUGAAAGCUGUAACUCUTT against SRY | inactive: -0.949 |
| GUAAUGAUCCCAUAUCAGATT against CYLC1 | inactive: 0.177 |
| GGAGCAUACAGAUGUCUGATT against BRS3 | inactive: 0.224 |
| GAUGGGUUCUUGAACAUAUTT against EXOG | inactive: 0.746 |
| GAUCGGAAAUUGCAUAGUATT against BTBD10 | inactive: 0.695 |
| GCUCCUAUCUGCAAACUGUTT against SLC2A6 | inactive: 0.616 |
| GGAUCCAGAUCUGCAAUAATT against CYP2C9 | inactive: 0.246 |
| GCAAGAUCAAGGACCGCUATT against LMO1 | inactive: 0.104 |
| CUGUCUCAGUGUUUGGUUATT against PIGZ | inactive: 0.74 |
| ACAUGUUUUCUGACGGCAATT against BAX | inactive: -0.478 |
| CCGAAGACCUGGUUCCUAUTT against DDX51 | inactive: -0.0715 |
| GCAGCACGCCUGAAUUUGATT against ESX1 | inactive: 0.275 |
| GGAAACAACCAAACCAGAATT against USP27X | inactive: 0.43 |
| AGACAGAGGCUACGUGUUUTT against IP6K1 | inactive: -0.317 |
| CUCUAUAACAAGUAUAUCATT against STAMBP | inactive: 0.511 |

| Sequence | median seed-adjusted z-score |
| --- | --- |
| GACCUUCUAUGGGCAUUUUTT against PRODH | inactive: 0.497 |
| ACCAUUAAAUCUGAAAGUATT against FABP4 | inactive: 0.227 |
| GCAACAAUAUUGCUCUAGATT against GALNT17 | inactive: 0.392 |
| GCUUUUCCAUUAUAAGGCATT against FOXE1 | inactive: -0.316 |
| GAUUAGCAGAGGUGCUAAATT against HMGN3 | inactive: -0.182 |
| CAGUUGAAAGUAUAGAAAATT against SFXN4 | inactive: -0.174 |
| GGCAGGUUAUAUUGCUUUUTT against SLC35B2 | inactive: -0.313 |
| GAUCUGCAAGAGUUUCGUUTT against SPINT1 | inactive: 0.0172 |
| GACUGGGAAUCUAAGCAGATT against BTNL3 | inactive: 0 |
| GUCGUUUACCUAAUGGUAATT against USP12 | inactive: 0.121 |
| CCUCCACAGUGUGAUUACATT against NCK1 | inactive: -0.0795 |
| GGAAAAGGGUUUUAGUAGATT against DNAL4 | inactive: 0 |
| GCAAUAUUUUGAGCAGUUUTT against MSI1 | inactive: -0.806 |
| GCUUAGCACCUGGUGCACATT against LSR | inactive: 0.306 |
| GACUAUUACCACCAGAUGATT against GLI2 | inactive: -0.796 |
| GCCUUUUAAUUGCAUUGAUTT against ZNF471 | inactive: 0.364 |
| AACUAACUCUGUGAACAUATT against TRIAP1 | inactive: 0.253 |
| GAUGCGAUGUGACAAAGAUTT against APOL5 | inactive: -0.209 |
| AUACAUCCAUUGUUCAGGATT against POLR1C | inactive: -0.0299 |
| GCUGUGCACAUUGCCCAUATT against AARSD1 | inactive: -0.156 |
| GAUUGAUGCUGGAAGUAGATT against PMPCB | inactive: 0.507 |
| GGAGACCAACUGCAACUUUTT against ZACN | inactive: 0.065 |
| GCUCUUUACUUCAAUAUGATT against CHM | inactive: 0.743 |
| GGAUCGAACCCAUGGAUCATT against ROCK2 | inactive: -0.149 |
| AGAAGAGCAUUGAGGUGCATT against FCRLB | inactive: -0.00684 |
| CGCUCUUCGUCUACUCCGATT against DRD4 | inactive: -0.183 |
| CGAUUAUGUAGCUACGAGATT against CDKL4 | inactive: 0.13 |

A few values from the entries so far:
Value for GAUUGAUGCUGGAAGUAGATT against PMPCB under median seed-adjusted z-score: inactive: 0.507
Value for GAUCUGCAAGAGUUUCGUUTT against SPINT1 under median seed-adjusted z-score: inactive: 0.0172
Value for GUCGUUUACCUAAUGGUAATT against USP12 under median seed-adjusted z-score: inactive: 0.121
Value for GCUUUUCCAUUAUAAGGCATT against FOXE1 under median seed-adjusted z-score: inactive: -0.316
